Results are given in words; binding and its absence hold for the method and conditions named. Binding seen in cells or lysates may run through a third protein. Here binding means that the protein was enriched with, or labelled near, the bait; the list need not be complete.
T1: biotinylated di-methyl-lysine (YBX1-K264) peptide
T1 sequence (peptide, di-methyl-lysine at K264; biotin (position not stated)): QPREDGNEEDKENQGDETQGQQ

T2: biotinylated mono-methyl-lysine (YBX1-K264) peptide
T2 sequence (peptide, mono-methyl-lysine at K264; biotin (position not stated)): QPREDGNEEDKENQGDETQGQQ

T3: biotinylated tri-methyl-lysine (YBX1-K264) peptide
T3 sequence (peptide, tri-methyl-lysine at K264; biotin (position not stated)): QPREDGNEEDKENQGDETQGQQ


Assays:
Experiment in all cases: affinity purification with mass spectrometry; biotinylated unmodified or mono/di/tri-methyl-lysine YBX1-K264 peptides incubated with A549 cell lysates; bound proteins analysed by LC-MS/MS; only the target purified
[1] = target: T1, biotinylated di-methyl-lysine (YBX1-K264) peptide
[2] = target: T2, biotinylated mono-methyl-lysine (YBX1-K264) peptide
[3] = target: T3, biotinylated tri-methyl-lysine (YBX1-K264) peptide

binding [1] | binding [2] | binding [3] | Binder
binds | binds | binds | SET domain containing 3 (enzyme, UniProt Q86TU7 1-594) MGKKSRVKTQKSGTGATATVSPKEILNLTSELLQKCSSPAPGPGKEWEEYVQIRTLVEKIRKKQKGLSVTFDGKREDYFPDLMKWASENGASVEGFEMVNFKEEGFGLRATRDIKAEELFLWVPRKLLMTVESAKNSVLGPLYSQDRILQAMGNIALAFHLLCERASPNSFWQPYIQTLPSEYDTPLYFEEDEVRYLQSTQAIHDVFSQYKNTARQYAYFYKVIQTHPHANKLPLKDSFTYEDYRWAVSSVMTRQNQIPTEDGSRVTLALIPLWDMCNHTNGLITTGYNLEDDRCECVALQDFRAGEQIYIFYGTRSNAEFVIHSGFFFDNNSHDRVKIKLGVSKSDRLYAMKAEVLARAGIPTSSVFALHFTEPPISAQLLAFLRVFCMTEEELKEHLLGDSAIDRIFTLGNSEFPVSWDNEVKLWTFLEDRASLLLKTYKTTIEEDKSVLKNHDLSVRAKMAIKLRLGEKEILEKAVKSAAVNREYYRQQMEEKAPLPKYEESNLGLLESSVGDSRLPLVLRNLEEEAGVQDALNIREAISKAKATENGLVNGENSIPNGTRSENESLNQESKRAVEDAKGSSSDSTAGVKE
binds | binds | binds | METTL13 (enzyme, UniProt Q8N6R0 1-699) MNLLPKSSREFGSVDYWEKFFQQRGKKAFEWYGTYLELCGVLHKYIKPREKVLVIGCGNSELSEQLYDVGYRDIVNIDISEVVIKQMKECNATRRPQMSFLKMDMTQMEFPDASFQVVLDKGTLDAVLTDEEEKTLQQVDRMLAEVGRVLQVGGRYLCISLAQAHILKKAVGHFSREGWMVRVHQVANSQDQVLEAEPQFSLPVFAFIMTKFRPVPGSALQIFELCAQEQRKPVRLESAERLAEAVQERQQYAWLCSQLRRKARLGSVSLDLCDGDTGEPRYTLHVVDSPTVKPSRDNHFAIFIIPQGRETEWLFGMDEGRKQLAASAGFRRLITVALHRGQQYESMDHIQAELSARVMELAPAGMPTQQQVPFLSVGGDIGVRTVQHQDCSPLSGDYVIEDVQGDDKRYFRRLIFLSNRNVVQSEARLLKDVSHKAQKKRKKDRKKQRPADAEDLPAAPGQSIDKSYLCCEHHKAMIAGLALLRNPELLLEIPLALLVVGLGGGSLPLFVHDHFPKSCIDAVEIDPSMLEVATQWFGFSQSDRMKVHIADGLDYIASLAGGGEARPCYDVIMFDVDSKDPTLGMSCPPPAFVEQSFLQKVKSILTPEGVFILNLVCRDLGLKDSVLAGLKAVFPLLYVRRIEGEVNEILFCQLHPEQKLATPELLETAQALERTLRKPGRGWDDTYVLSDMLKTVKIV
binds | binds | binds | TRMT112 (protein, UniProt Q9UI30 1-125) MKLLTHNLLSSHVRGVGSRGFPLRLQATEVRICPVEFNPNFVARMIPKVEWSAFLEAADNLRLIQVPKGPVEGYEENEEFLRTMHHLLLEVEVIEGTLQCPESGRMFPISRGIPNMLLSEEETES

— article PMC8996536
